According to patent US20210324028A1:
Changes are numbered by the printed parent chain. In names and notes the source's numbering stands. These are yes or no findings as the source states them, for the method shown. Some entries that bind do so weakly or less than the wild type. One block for each binder: values may come before it.

The chains behind the UniProt entries cited, without tags or fusion partners. Residues count along the entry.
UniProt Q13261, residues 31-205: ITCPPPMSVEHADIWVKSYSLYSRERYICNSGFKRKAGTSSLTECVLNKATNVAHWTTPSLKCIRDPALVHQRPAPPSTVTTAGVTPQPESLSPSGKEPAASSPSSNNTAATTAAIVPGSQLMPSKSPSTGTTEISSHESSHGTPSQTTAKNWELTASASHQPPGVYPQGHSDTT

Key:
human IL-15Rα (human) = human IL-15Rα (human) (UniProt Q13261); test: SPR
human IL-2Rβ (human) = biological target: T1, human IL-2Rβ (human) (UniProt P14784); test: SPR
T1 sequence (looked up): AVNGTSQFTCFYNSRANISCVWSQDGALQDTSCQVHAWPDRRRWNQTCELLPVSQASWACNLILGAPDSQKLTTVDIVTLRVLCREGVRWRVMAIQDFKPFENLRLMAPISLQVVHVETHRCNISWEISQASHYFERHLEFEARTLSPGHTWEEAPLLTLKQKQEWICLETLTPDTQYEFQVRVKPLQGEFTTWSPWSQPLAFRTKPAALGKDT

- binding (human IL-15Rα (human)): binds
B1: hIL-15 V49R/N4F (ligand)
chain: NWVFVISDLKKIEDLIQSMHIDATLYTESDVHPSCKVTAMKCFLLELQRISLESGDASIHDTVENLIILANNSLSSNGNVTESGCKECEELEEKNIKEFLQSFVHIVQMFINTGGGGSGHHHHHHHHGGGLNDIFEAQKIEWHE

- binding (human IL-15Rα (human)): binds
B2: hIL-15 V49R/K11M (ligand)
chain: B1 chain with F4N, K11M

- binding (human IL-15Rα (human)): binds
B3: hIL-15 V49R/H32T (ligand)
chain: B1 chain with F4N, H32T

- binding (human IL-15Rα (human)): binds
B4: hIL-15 V49R/N4Y (ligand)
chain: B1 chain with F4Y

- binding (human IL-2Rβ (human)): binds
- binding (human IL-15Rα (human)): binds
B5: hIL-15 V49R/H32Y (ligand)
chain: B1 chain with F4N, H32Y

- binding (human IL-2Rβ (human)): binds
B6: hIL-15 V49R/L69Q (ligand)
chain: B1 chain with F4N, L69Q

- binding (human IL-2Rβ (human)): binds
B7: hIL-15 V49R/I68G (ligand)
chain: B1 chain with F4N, I68G

- binding (human IL-2Rβ (human)): binds
- binding (human IL-15Rα (human)): binds
B8: hIL-15 V49R/N1M (ligand)
chain: B1 chain with N1M, F4N

- binding (human IL-15Rα (human)): binds
B9: hIL-15 V49R/D30G (ligand)
chain: B1 chain with F4N, D30G

- binding (human IL-15Rα (human)): binds
B10: hIL-15 V49R/K10I (ligand)
chain: B1 chain with F4N, K10I

- binding (human IL-2Rβ (human)): binds
- binding (human IL-15Rα (human)): binds
B11: hIL-15 V49R/K10F (ligand)
chain: B1 chain with F4N, K10F

- binding (human IL-2Rβ (human)): binds
B12: hIL-15 V49R/L69H (ligand)
chain: B1 chain with F4N, L69H

- binding (human IL-2Rβ (human)): binds
B13: hIL-15 V49R/N4R (ligand)
chain: B1 chain with F4R

- binding (human IL-15Rα (human)): binds
B14: hIL-15 V49R/K11F (ligand)
chain: B1 chain with F4N, K11F

- binding (human IL-2Rβ (human)): binds
- binding (human IL-15Rα (human)): binds
B15: hIL-15 V49R/E64R (ligand)
chain: B1 chain with F4N, E64R

- binding (human IL-2Rβ (human)): binds
- binding (human IL-15Rα (human)): binds
B16: hIL-15 V49R/N1Y (ligand)
chain: B1 chain with N1Y, F4N

- binding (human IL-2Rβ (human)): binds
B17: hIL-15 V49R/I68W (ligand)
chain: B1 chain with F4N, I68W

- binding (human IL-2Rβ (human)): binds
- binding (human IL-15Rα (human)): binds
B18: hIL-15 V49R/K10V (ligand)
chain: B1 chain with F4N, K10V

- binding (human IL-2Rβ (human)): binds
- binding (human IL-15Rα (human)): binds
B19: hIL-15 V49R/L69G (ligand)
chain: B1 chain with F4N, L69G

- binding (human IL-15Rα (human)): binds
B20: hIL-15 V49R/E64V (ligand)
chain: B1 chain with F4N, E64V

- binding (human IL-2Rβ (human)): binds
- binding (human IL-15Rα (human)): binds
B21: hIL-15 V49R/N1F (ligand)
chain: B1 chain with N1F, F4N

- binding (human IL-2Rβ (human)): binds
B22: hIL-15 V49R/S7P (ligand)
chain: B1 chain with F4N, S7P

- binding (human IL-15Rα (human)): binds
B23: hIL-15 V49R/N1P (ligand)
chain: B1 chain with N1P, F4N

- binding (human IL-15Rα (human)): binds
B24: hIL-15 V49R/K11P (ligand)
chain: B1 chain with F4N, K11P

- binding (human IL-2Rβ (human)): binds
- binding (human IL-15Rα (human)): binds
B25: hIL-15 V49R/E64G (ligand)
chain: B1 chain with F4N, E64G

- binding (human IL-15Rα (human)): binds
B26: hIL-15 V49R/N4I (ligand)
chain: B1 chain with F4I

- binding (human IL-2Rβ (human)): binds
B27: hIL-15 V49R/N4P (ligand)
chain: B1 chain with F4P

- binding (human IL-2Rβ (human)): binds
- binding (human IL-15Rα (human)): binds
B28: hIL-15 V49R/N1V (ligand)
chain: B1 chain with N1V, F4N

- binding (human IL-2Rβ (human)): binds
B29: hIL-15 V49R/I68E (ligand)
chain: B1 chain with F4N, I68E

- binding (human IL-2Rβ (human)): binds
- binding (human IL-15Rα (human)): binds
B30: hIL-15 V49R/N4V (ligand)
chain: B1 chain with F4V

- binding (human IL-2Rβ (human)): binds
B31: hIL-15 V49R/L69N (ligand)
chain: B1 chain with F4N, L69N

- binding (human IL-15Rα (human)): binds
B32: hIL-15 V49R/H32W (ligand)
chain: B1 chain with F4N, H32W

- binding (human IL-15Rα (human)): binds
B33: hIL-15 V49R/K10P (ligand)
chain: B1 chain with F4N, K10P

- binding (human IL-2Rβ (human)): binds
- binding (human IL-15Rα (human)): binds
B34: hIL-15 V49R/K11G (ligand)
chain: B1 chain with F4N, K11G

- binding (human IL-15Rα (human)): binds
B35: hIL-15 V49R/H32F (ligand)
chain: B1 chain with F4N, H32F

- binding (human IL-2Rβ (human)): binds
B36: hIL-15 V49R/D30P (ligand)
chain: B1 chain with F4N, D30P

- binding (human IL-15Rα (human)): binds
B37: hIL-15 V49R/D30W (ligand)
chain: B1 chain with F4N, D30W

- binding (human IL-2Rβ (human)): binds
- binding (human IL-15Rα (human)): binds
B38: hIL-15 V49R/N1L (ligand)
chain: B1 chain with N1L, F4N
